Laboratory results: paper PMC5717261
These are yes or no findings as the source states them, for the method shown. Some entries that bind do so weakly or less than the wild type. Sequences can lack the tags named with a protein.

Amino acid sequences for entries named in this document (tags omitted). Residues count along the entry.
UniProt P11226, residues 21-248: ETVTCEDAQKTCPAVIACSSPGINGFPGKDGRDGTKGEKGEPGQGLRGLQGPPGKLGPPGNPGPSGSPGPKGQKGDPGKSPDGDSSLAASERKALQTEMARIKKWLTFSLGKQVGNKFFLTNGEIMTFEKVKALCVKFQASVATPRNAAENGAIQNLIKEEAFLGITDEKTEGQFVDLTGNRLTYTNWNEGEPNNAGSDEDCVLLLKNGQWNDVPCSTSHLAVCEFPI

B1: Recombinant human bone morphogenetic protein-1 (BMP-1) with a C-terminal FLAG tag (enzyme, UniProt P13497-2 121-730)
chain: AATSRPERVWPDGVIPFVIGGNFTGSQRAVFRQAMRHWEKHTCVTFLERTDEDSYIVFTYRPCGCCSYVGRRGGGPQAISIGKNCDKFGIVVHELGHVVGFWHEHTRPDRDRHVSIVRENIQPGQEYNFLKMEPQEVESLGETYDFDSIMHYARNTFSRGIFLDTIVPKYEVNGVKPPIGQRTRLSKGDIAQARKLYKCPACGETLQDSTGNFSSPEYPNGYSAHMHCVWRISVTPGEKIILNFTSLDLYRSRLCWYDYVEVRDGFWRKAPLRGRFCGSKLPEPIVSTDSRLWVEFRSSSNWVGKGFFAVYEAICGGDVKKDYGHIQSPNYPDDYRPSKVCIWRIQVSEGFHVGLTFQSFEIERHDSCAYDYLEVRDGHSESSTLIGRYCGYEKPDDIKSTSSRLWLKFVSDGSINKAGFAVNFFKEVDECSRPNRGGCEQRCLNTLGSYKCSCDPGYELAPDKRRCEAACGGFLTKLNGSITSPGWPKEYPPNKNCIWQLVAPTQYRISLQFDFFETEGNDVCKYDFVEVRSGLTADSKLHGKFCGSEKPEVITSQYNNMRVEFKSDNTVSKKGFKAHFFSEKRPALQPPRGRPHQLKFRVQKRNRTPQ
B2: Recombinant human mammalian tolloid-like-1 (mTLL-1) with a C-terminal 6x-His tag (enzyme, UniProt O43897 148-1013)
chain: AATSRTERIWPGGVIPYVIGGNFTGSQRAMFKQAMRHWEKHTCVTFIERSDEESYIVFTYRPCGCCSYVGRRGNGPQAISIGKNCDKFGIVVHELGHVIGFWHEHTRPDRDNHVTIIRENIQPGQEYNFLKMEPGEVNSLGERYDFDSIMHYARNTFSRGMFLDTILPSRDDNGIRPAIGQRTRLSKGDIAQARKLYRCPACGETLQESNGNLSSPGFPNGYPSYTHCIWRVSVTPGEKIVLNFTTMDLYKSSLCWYDYIEVRDGYWRKSPLLGRFCGDKLPEVLTSTDSRMWIEFRSSSNWVGKGFAAVYEAICGGEIRKNEGQIQSPNYPDDYRPMKECVWKITVSESYHVGLTFQSFEIERHDNCAYDYLEVRDGTSENSPLIGRFCGYDKPEDIRSTSNTLWMKFVSDGTVNKAGFAANFFKEEDECAKPDRGGCEQRCLNTLGSYQCACEPGYELGPDRRSCEAACGGLLTKLNGTITTPGWPKEYPPNKNCVWQVVAPTQYRISVKFEFFELEGNEVCKYDYVEIWSGLSSESKLHGKFCGAEVPEVITSQFNNMRIEFKSDNTVSKKGFKAHFFSDKDECSKDNGGCQHECVNTMGSYMCQCRNGFVLHDNKHDCKEAECEQKIHSPSGLITSPNWPDKYPSRKECTWEISATPGHRIKLAFSEFEIEQHQECAYDHLEVFDGETEKSPILGRLCGNKIPDPLVATGNKMFVRFVSDASVQRKGFQATHSTECGGRLKAESKPRDLYSHAQFGDNNYPGQVDCEWLLVSERGSRLELSFQTFEVEEEADCGYDYVELFDGLDSTAVGLGRFCGSGPPEEIYSIGDSVLIHFHTDDTINKKGFHIRYKSIRYPDTTHTKK

Biological target: Recombinant human mannose-binding lectin (MBL) (human) (UniProt P11226)
Test: SPR; reverse configuration: C1q or MBL immobilised by amine coupling on CM5; soluble BMP-1 (50 nM) or mTLL-1 (150 nM) injected; 25 °C; both purified

Binder | binding
B1 | binds weakly
B2 | binds weakly
